Experimental data: PubChem BioAssay AID602196 (INSERM, 2012)
Screen: 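Genes whose knock-down alters cisplatin killing of lung cancer cells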. Cell system: human A549 lung cancer cells. Reagents: siRNA pair against human genes. Duration: 48 h transfection before cisplatin; time from cisplatin to read-out not stated. Conditions: cisplatin at a dose killing half of control-siRNA cells; exact dose and duration not given. Measured: 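Shift in cisplatin death relative to control siRNA, from -50 (all cells die) to +50 (no cells die); siRNAs harmful on their own scored 0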. Scale: two-siRNA summed score (-2 to +2): higher = both siRNAs protect from cisplatin killing; -2 means both sensitise. Rule for the call: 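Each siRNA scores 0 if harmful alone by LDH or WST-1, otherwise +1 if it reduces and -1 if it increases cisplatin killing; a gene is active when both siRNAs agree (sum +2 or -2)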. Calls: active = both siRNAs shift cisplatin killing the same way; inactive = no consistent shift, or siRNA harmful alone.
The whole screen tested about 23,000 reagents; this is an unselected part. Over the whole deposit, 455 (2%) are marked active. 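Active includes both protection and sensitisation; some change values fall well beyond the stated -50 to +50 range.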 Further read-outs or replicates are left out here. Not stated in the record: the amount of reagent.

With knock-down of COPB2 the results were two-siRNA summed score (-2 to +2) = 0; inactive.
SESN1 gave two-siRNA summed score (-2 to +2) = 0; inactive.
With knock-down of LILRB4, the record shows two-siRNA summed score (-2 to +2) = 0; inactive.
With knock-down of MPP7 the results were two-siRNA summed score (-2 to +2) = 1; inactive.
Against SLC17A1 the deposit lists two-siRNA summed score (-2 to +2) = -1; inactive.
LOC442277 gave two-siRNA summed score (-2 to +2) = 0; inactive.
Silencing of LOC440517 gave: two-siRNA summed score (-2 to +2) = 0; inactive.
TRIM60 gave two-siRNA summed score (-2 to +2) = -1; inactive.
After knock-down of ICOS, the record shows two-siRNA summed score (-2 to +2) = 1; inactive.
Silencing of NELL1 gave: two-siRNA summed score (-2 to +2) = 0; inactive.
Against TBC1D3C, the values are two-siRNA summed score (-2 to +2) = 0; inactive.
CLIC5 showed two-siRNA summed score (-2 to +2) = 0; inactive.
Depletion of ARHGAP11A gave: two-siRNA summed score (-2 to +2) = 0; inactive.
Against TCF7L2, the values are two-siRNA summed score (-2 to +2) = -1; inactive.
ARHGAP1 showed two-siRNA summed score (-2 to +2) = 0; inactive.
Silencing of RASGRP1 resulted in: two-siRNA summed score (-2 to +2) = 1; inactive.
For PCDHGA6 the deposit lists two-siRNA summed score (-2 to +2) = 0; inactive.
MYH13 gave two-siRNA summed score (-2 to +2) = 1; inactive.
With knock-down of LOC440298, the record shows two-siRNA summed score (-2 to +2) = 0; inactive.
TPMT gave two-siRNA summed score (-2 to +2) = 0; inactive.

Targets above whose gene name starts with T or t:
TRIM60 → two-siRNA summed score (-2 to +2) = -1; Outcome = inactive
TBC1D3C → two-siRNA summed score (-2 to +2) = 0; Outcome = inactive
TCF7L2 → two-siRNA summed score (-2 to +2) = -1; Outcome = inactive
TPMT → two-siRNA summed score (-2 to +2) = 0; Outcome = inactive

Next records follow.
TSPYL5 scored two-siRNA summed score (-2 to +2) = 0; inactive.
OR5B3 gave two-siRNA summed score (-2 to +2) = 0; inactive.
After knock-down of FLJ30092, the record shows two-siRNA summed score (-2 to +2) = 1; inactive.
After knock-down of GALP, the record shows two-siRNA summed score (-2 to +2) = 0; inactive.
Against DCUN1D1, the entry reads two-siRNA summed score (-2 to +2) = 0; inactive.
TMA7 gave two-siRNA summed score (-2 to +2) = 0; inactive.
With knock-down of SWAP70, the screen gave two-siRNA summed score (-2 to +2) = 0; inactive.
With knock-down of TIA1, the record shows two-siRNA summed score (-2 to +2) = 0; inactive.
For LOC440587, the values are two-siRNA summed score (-2 to +2) = 0; inactive.
Knock-down of LLPH came out at: two-siRNA summed score (-2 to +2) = 0; inactive.
For LOC440371, the entry reads two-siRNA summed score (-2 to +2) = 0; inactive.
